For at least one entry, the source does not settle the construct or the ends of the probe. Protein sequences can lack the tags named with them.
Test system: T1, AUREO1c (Phaeodactylum tricornutum)
T1 sequence (looked up, limits assumed): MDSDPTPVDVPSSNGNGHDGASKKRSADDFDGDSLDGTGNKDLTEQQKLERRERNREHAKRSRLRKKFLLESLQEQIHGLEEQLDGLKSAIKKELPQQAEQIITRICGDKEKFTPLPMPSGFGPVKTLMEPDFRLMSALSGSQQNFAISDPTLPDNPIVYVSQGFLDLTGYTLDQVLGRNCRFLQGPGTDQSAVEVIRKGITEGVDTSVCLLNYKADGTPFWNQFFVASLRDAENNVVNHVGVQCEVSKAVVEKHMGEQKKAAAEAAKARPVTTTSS
Experiment: EMSA
Conditions: excess unlabeled probe (50-200x) reverses shift, LightShift Chemiluminescent EMSA Kit (Thermo 20148) per manufacturer, temperature and light state not stated, recombinant protein, protein details: N-terminal 6xHis (pET28a), probe letters rebuilt from the primers and the genome

Sequence	binding result (label: 5' biotin on HZ-1628 strand)	binding result (label: 5' biotin on HZ-1630 strand)
CAATTAGTGCTGACTAACAGCGTATACTGTCAACAGAGTCCGATGACTGGCTGACAATGACTTGGAACGCCAATTTGCATTGATAGTGACTATGAGTTCCAAGCTTCGATCGGGCCGAACCAAGTAGAAAGATACATGTAAACGACTACCTATATACTGGCTGATTCAATCCGACCAGCAGAGTAACCCCATCTGGTGTCGATTCCTCTGCGAATACTCTAGAGGTATCACGGTATGTATATAGTATATAGTACTCGTCGCCCACGGTTGTCTTCGATTCCCATCCATCCTGTTACGGACAGGAACCAGACACGACACGGCCCTACCTCTCCGTATCCGATCCTTGCCATCACTTTTGGGGTACTTTCGAAAAAGACTGATTCATAGTCAAATGCCTTCTGACGGATCCAGAGGGTACGCAGAGTTCTGCTGACGAACTGTCTCGTACACTCATTCTTGGTTGTGGAAATCATCTCCCTACACACTACGCTCCAAAATGATAACTCTGCACAATTCACACAATATCCTAAACAGTACACTTGCGATCGCACTTGCAACCCACGTACCACCACCAGTACCAAACACAATCATTACACC (double strand) [LHCX3 promoter probe]	binds	–
CTAACCTGTAATACTAACGTGATGTATGAATGAATCGTGTATGACGTTCCGGTGTCGAGTCACTATCATACCATTGGTGATATGATATCACGTGAGATATCACTGATATCTCACGTCAATAGACAAGCTGCTTTACAATGGGTGAAAACAACCACCACACGAAACAAGTTCCTGTAACTCTAAATATTGATTGTAATTGGTGAAGAAAGCATTTTCCTGACTGTGGGTACATGGAATACATCCTTTTTTGATAAATGTACAAACAAAGACTCATTTACTGTTAGTCATAGTCAAGCGCAGTGCGTACTTGACTGTGAAAAAATCGAGCTCTGAAAGGGTTAAAGTTCAAGAGGTACAAGGTAGCTGGTTTGCGTGTGTCAGGGCATGGCCTACCTGACTCATGCATTCCGCGTGCCACAAAAACTCACAGTCAGAGAGCCACTCCGAGAATCCTCCAGAATTTCGTGGAAGATTTTTTCGTCATCTTTTTCCAGTTCTCCGCATAGCTCTCATAGTTTCGTTTGCGTTCTTCGTCAACACACCGCAAAAAGATATACGTCCAATTCCAGCCCACTACGTACA (double strand) [LHCX2 promoter probe]	–	binds
